Hit rate of the full screen: of about 59,000 compounds, about 6,500 (11%) were called active. Inconclusive means that the source gave no clear call. Such entries were picked first, then a sample of the others. Rule as the data show it: active = max dye-equivalent concentration above about 10 nM; inconclusive = mostly about 1.1 nM to 9.6 nM; inactive = weaker than that.
Assay: qHTS Assay for Spectroscopic Profiling in A350 Spectral Region
Settings: Compound autofluorescence, 340/450 nm, Alexa 350 dye-equivalents; hits give high values

SMILES	max dye-equivalent concentration
CC(C)(C)c1ccc(CN2CCN([C@H](c3ccccc3)c3ccc(Cl)cc3)CC2)cc1	inactive
CSc1nc(C)cc(Nc2ccc(O)c(CN3CCCCC3)c2)n1	inactive
COc1ccc(C2C(C#N)=C(N)OC(C(C)(C)C)=C2C#N)cc1OC (centres undefined)	inconclusive: 5.4 nM
Cc1cc(N2C(=O)CC(N3CCN(c4ccc(C(=O)c5cccs5)cc4)CC3)C2=O)no1 (centres undefined)	inconclusive: 3.4 nM
Cc1cc2n(n1)C(c1ccccc1Cl)Nc1ccccc1-2 (centres undefined)	inconclusive: 4.9 nM
COc1ccc(-c2nc3cnc(Nc4ccccc4)nc3n(CCC#N)c2=O)cc1	inconclusive: 2.2 nM
Cc1ccc(C(=O)C2=C(O)C(=O)N(CCCN3CCOCC3)C23C(=O)N(C)c2ccccc23)o1 (centres undefined)	inconclusive: 1.3 nM
CCOC(=O)CSc1nnc(CNc2nc(-c3ccccc3)cs2)n1C	inconclusive: 1.4 nM
COc1ccc(C2=NOC(C(=O)NCc3ccco3)C2)cc1OC (centres undefined)	inconclusive: 1.3 nM
O=C(NC1CCCCC1)C(c1ccc(F)cc1)N(Cc1ccco1)C(=O)Cn1nnc2ccccc21 (centres undefined)	inconclusive: 1.9 nM
CCN1CCN(c2ncc(C(=O)Nc3cc(Cl)c(OC)cc3OC)c3ccccc23)CC1	inactive
O=C(NCc1ccc(Cl)cc1Cl)c1ccccn1	inconclusive: 4.2 nM
O=C(CSc1nc(O)cc(=O)[nH]1)Nc1ccc2c(c1)CCC2	inconclusive: 6.4 nM
CC(C)(C)OC(=O)NCCCC(CCCNC(=O)OC(C)(C)C)C(=O)O	inactive
O=C(O)CCC(=O)NCC1OCCc2ccccc21 (centres undefined)	inactive
O=C(OCCCN1C(=O)c2ccccc2C1=O)c1ccco1	inactive
Cc1cc(=O)oc2cc(OCC(=O)NCc3cccnc3)ccc12	active: 19 nM
CCC(=O)N(Cc1cc2ccccc2[nH]c1=O)C(C)C	inactive
N#Cc1cccc(-c2ccc3ncnc(NCc4ccccc4)c3c2)c1	inconclusive: 2.8 nM
CCOC(=O)c1sc(NC(=O)CSc2nnc(-c3ccco3)o2)c(C(=O)OCC)c1C	inactive

SMILES	max dye-equivalent concentration
CCC(=O)N1CCc2cc(S(=O)(=O)CCC(=O)NCCc3ccc(OC)c(OC)c3)ccc21	inactive
O=C(Cn1cc(C(=O)c2ccco2)c2ccccc21)NC1CCCC1	inconclusive: 3 nM
CN(C(=O)c1cccc(C#N)c1)c1nnc(C2CCOC2)s1 (centres undefined)	inconclusive: 6.9 nM
Cc1ccc2nc(-c3ccccn3)cc(C(=O)NC3CCN(C)CC3)c2c1	inconclusive: 5.6 nM
CCOc1cc(C2c3c(n[nH]c3C)C(=O)N2c2ccc(Br)cc2)ccc1O (centres undefined)	inactive
Cc1ccc(C)c(NC(=O)CC(NCCCN2CCOCC2)C(=O)O)c1 (centres undefined)	inconclusive: 1.3 nM
O=C(Nc1ccc(S(=O)(=O)NC2CCCC2)cc1)c1cnccn1	inactive
Cc1cccc(OCC(=O)Nc2cccc(-c3nnc(-c4ccccc4)o3)c2)c1C	inconclusive: 1.6 nM
Cc1nc2nc(-c3ccco3)nn2c(C)c1Cl	inconclusive: 3 nM
CC1(C)Cc2nc(N)c(C(=O)NCCO)cc2CO1	active: 160 nM
Cc1noc(C)c1-c1nc(NC2CCNCC2)c2ccccc2n1	inactive
CN(C)C(=O)N1CCC(C(=O)NCc2ccccc2)CC1	inactive
Cc1ccc(C)c(SCC(=O)Nc2nnc(-c3ccccc3)o2)c1	inconclusive: 2.6 nM
O=C(NCCCN1CCc2ccccc2C1)C1CCN(S(=O)(=O)N2CCCC2)CC1	inconclusive: 1.3 nM
Cc1csc(NC(=O)c2sc3nc(-c4cccs4)ccc3c2N)n1	active: 14 nM
Cn1c(=O)c2[nH]c(N3CCOCC3)nc2n(-c2ccccc2)c1=O	inconclusive: 3.1 nM
Cc1noc(C)c1CSCC(=O)OCC(=O)NC1CCCCC1	inactive
COc1cc(C2C(C#N)=C(N)Oc3cc(N)ccc32)cc(OC)c1OC (centres undefined)	inconclusive: 3.9 nM
CCOC(=O)CC(=O)CSc1nc(C)nc2c1oc1ccccc12	inconclusive: 5.3 nM
COc1ccc2c(CSc3nc4nc(C)cc(C)n4n3)cc(=O)oc2c1	inconclusive: 6.8 nM

Pulled by structure from the list above, two records:
SMILES	max dye-equivalent concentration
Cc1nc2nc(-c3ccco3)nn2c(C)c1Cl	inconclusive: 3 nM
Cc1cc(=O)oc2cc(OCC(=O)NCc3cccnc3)ccc12	active: 19 nM

Later entries:

SMILES	max dye-equivalent concentration
CCCOc1ccc(-c2nc(C#N)c(N3CCN(C)CC3)o2)cc1	inconclusive: 2.9 nM
CCc1ccc2[nH]c(=O)c(C(c3nnnn3CCOC)N3CCN(c4ccc(F)cc4)CC3)cc2c1 (centres undefined)	inconclusive: 8.8 nM
OCCCN1c2ccccc2Nc2nnc(-c3ccccc3)cc21	active: 110 nM
COc1ccccc1NC(=O)c1ccccc1NS(=O)(=O)N1CCCC1	inconclusive: 3.3 nM
CCOC(=O)Nc1nnc(-c2ccc(OC)c(OC)c2)s1	active: 10 nM
CC(C(=O)Nc1cc(C(F)(F)F)ccc1N1CCOCC1)N1C(=O)C2CC=CCC2C1=O (centres undefined)	inconclusive: 6.2 nM
CCOc1cc(C2NC(=O)NC(C)=C2C(=O)OCc2ccccc2)ccc1O (centres undefined)	inactive
N#Cc1c(N)sc(=S)c2c1CCN(Cc1ccccc1)C2	active: 1100 nM
COC(=O)CSc1nnc(-c2cccc(NC(=O)c3ccc(C)cc3)c2)n1C	inconclusive: 7.3 nM
COc1ccc(-c2cc(C(N)=O)nc(N3CCCCCC3)n2)cc1	inconclusive: 2.1 nM
COc1ccc2[nH]c3c(NCCN(C(C)C)C(C)C)ncnc3c2c1	active: 280 nM
OCC1N=C(c2ccccn2)OC1c1ccccc1 (centres undefined)	inactive
O=C(c1csnn1)N1CCC2(CC1)CCN(c1ccccc1)CC2	inactive
Cc1c(NC(=O)c2ccc(=O)oc2)c(=O)n(-c2ccccc2)n1C	inconclusive: 3.4 nM
CCc1ccc2nc(N3CCN(C)CC3)c(C#N)cc2c1	active: 80 nM
Cc1noc(C)c1C(=O)Nc1ccc(Cl)cc1C(F)(F)F	inconclusive: 1.4 nM
O=C(O)c1ccncc1.O=C(O)c1ccncc1.[NH2-].[NH2-].[Pt]	inactive
CC(=O)Nc1nc(C=C(Cl)Cl)cs1	inconclusive: 2.3 nM
C=CCn1cc(C(=O)NCCCOC)c(=O)c2cc(S(=O)(=O)N(CC)CC)ccc21	inconclusive: 9.1 nM

A run of entries from the list above, for reference:
SMILES	max dye-equivalent concentration
Cc1noc(C)c1C(=O)Nc1ccc(Cl)cc1C(F)(F)F	inconclusive: 1.4 nM
O=C(O)c1ccncc1.O=C(O)c1ccncc1.[NH2-].[NH2-].[Pt]	inactive

From PubChem BioAssay AID590 (National Center for Advancing Translational Sciences (NCATS), 2007)
